The values that follow come from PMC11218510, “Functional analysis of the methylerythritol phosphate pathway terminal enzymes IspG and IspH from Zymomonas mobilis” (Microbiology Spectrum, 2024).

The target in test [1] is T1, E. coli IspG fused downstream of T18 (pUT18C-ispGEC) (E. coli) (UniProt P62620).
T1 sequence: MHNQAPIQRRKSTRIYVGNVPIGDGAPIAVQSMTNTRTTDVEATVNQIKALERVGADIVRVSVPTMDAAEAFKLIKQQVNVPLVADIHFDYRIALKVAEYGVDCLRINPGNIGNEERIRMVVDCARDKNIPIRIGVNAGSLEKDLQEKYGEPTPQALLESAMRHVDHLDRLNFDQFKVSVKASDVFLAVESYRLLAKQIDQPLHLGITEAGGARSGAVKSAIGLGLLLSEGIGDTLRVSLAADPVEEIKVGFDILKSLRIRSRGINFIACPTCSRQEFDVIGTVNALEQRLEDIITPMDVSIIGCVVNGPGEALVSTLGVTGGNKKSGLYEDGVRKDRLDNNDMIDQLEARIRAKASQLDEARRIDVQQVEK
The test can be described thus: two-hybrid; bacterial adenylate cyclase two-hybrid (BACTH) in E. coli BTH101; T25 fusions on pKT25, T18 fusions on pUT18C; colonies on X-gal, IPTG (500 μM) plates under aerobic and anaerobic conditions.

The target of test [2] is T2, Z. mobilis Strep-tag II IspG (Z. mobilis) (UniProt Q5NR50).
T2 sequence: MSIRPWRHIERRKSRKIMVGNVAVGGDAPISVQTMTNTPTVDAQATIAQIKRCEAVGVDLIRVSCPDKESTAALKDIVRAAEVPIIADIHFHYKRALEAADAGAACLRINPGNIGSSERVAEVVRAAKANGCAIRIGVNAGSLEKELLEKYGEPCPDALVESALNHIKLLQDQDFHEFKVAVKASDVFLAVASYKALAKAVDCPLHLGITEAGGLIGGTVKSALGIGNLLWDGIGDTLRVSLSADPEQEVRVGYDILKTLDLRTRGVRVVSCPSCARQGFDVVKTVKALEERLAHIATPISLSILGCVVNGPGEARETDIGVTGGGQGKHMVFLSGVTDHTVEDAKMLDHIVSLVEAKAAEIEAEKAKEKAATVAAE
The test can be described thus: native gel or EMSA; 4%-16% Bis-Tris Native gel; 50 μM IspG, 50 μM IspH and a mixture of 25 μM each; both purified.

Test [3] addresses Z. mobilis Strep-tag II IspH (Z. mobilis) (UniProt Q5NP61). The description is as above.
Test [4] has as its target T2, Z. mobilis Strep-tag II IspG (Z. mobilis). Description: SEC; Superdex 200 Increase 10/300 GL, 50 mM Tris-HCl (pH 7.5), 150 mM NaCl, anaerobic; equimolar mixture (25 μM each) compared with each protein alone (50 μM); A280; both purified. (In general: Size exclusion chromatography separates by hydrodynamic size, large species first.)
Test [5] deals with T3, Z. mobilis IspG fused downstream of T18 (pUT18C-ispGZM) (Z. mobilis) (UniProt Q5NR50).
T3 sequence: T2 sequence
The test can be described thus: two-hybrid; bacterial adenylate cyclase two-hybrid (BACTH) in E. coli BTH101; T25 fusions on pKT25, T18 fusions on pUT18C; colonies on X-gal, IPTG (500 μM) plates under aerobic and anaerobic conditions.

These are yes or no findings as the source states them, for the method shown. Tags and fused reporters may be left off the sequences shown.

B1: E. coli IspH fused downstream of T25 (pKT25-ispHEC) (enzyme, UniProt P62623 1-316)
chain: MQILLANPRGFCAGVDRAISIVENALAIYGAPIYVRHEVVHNRYVVDSLRERGAIFIEQISEVPDGAILIFSAHGVSQAVRNEAKSRDLTVFDATCPLVTKVHMEVARASRRGEESILIGHAGHPEVEGTMGQYSNPEGGMYLVESPDDVWKLTVKNEEKLSFMTQTTLSVDDTSDVIDALRKRFPKIVGPRKDDICYATTNRQEAVRALAEQAEVVLVVGSKNSSNSNRLAELAQRMGKRAFLIDDAKDIQEEWVKEVKCVGVTAGASAPDILVQNVVARLQQLGGGEAIPLEGREENIVFEVPKELRVDIREVD
Take B1: the binding result in test [1] is on record as “no binding”.

B2: Z. mobilis Strep-tag II IspH (enzyme, UniProt Q5NP61 1-340)
chain: MIKIILAQPRGFCAGVIRAIEIVDQALDRVGAPVYVRHEIVHNRHVVDTLKAKGAVFVEELSEVPPGEVTVFSAHGVARTVQKEAEERGLPVVDATCPLVNKVHAQGRRYLSHGRTLILIGHAGHPEIEGTLGQIDGPVHLVGSAEQVDSLDIPSDTPVAFITQTTLSVDDTRSVIAALRKKFTDVIGPDTSDICYATQNRQAAVRDLCKQSDLILVVGSPNSSNSNRLREIGLEEGLPSYLIADGSEIDPVWFEGINTVGLTAGASAPEELVQSVITAIRALGPVTVEQLDGVEEKIAFRLPPTLRHLKARNAAHNNLDNKTAASEEADSLSNDTEQEA
B2: the binding entry in test [2] was “no binding (tested: 25 μM each)”; in test [3], “no binding”; in test [4], “no binding (tested: 25 μM each)”.

B3: Z. mobilis IspH fused downstream of T25 (pKT25-ispHZM) (enzyme, UniProt Q5NP61 1-340)
chain: B2 chain
As for B3, the binding entry in test [5] is “no binding”.
